The supplement of paper PMC10849652
This is one part of the list.

Chains of the proteins cited; added tags and fusions are not shown. Lines headed by an entry give the natural chain unless they say otherwise; changes in a name come on top.
UniProt P08651, whole entry, looked up: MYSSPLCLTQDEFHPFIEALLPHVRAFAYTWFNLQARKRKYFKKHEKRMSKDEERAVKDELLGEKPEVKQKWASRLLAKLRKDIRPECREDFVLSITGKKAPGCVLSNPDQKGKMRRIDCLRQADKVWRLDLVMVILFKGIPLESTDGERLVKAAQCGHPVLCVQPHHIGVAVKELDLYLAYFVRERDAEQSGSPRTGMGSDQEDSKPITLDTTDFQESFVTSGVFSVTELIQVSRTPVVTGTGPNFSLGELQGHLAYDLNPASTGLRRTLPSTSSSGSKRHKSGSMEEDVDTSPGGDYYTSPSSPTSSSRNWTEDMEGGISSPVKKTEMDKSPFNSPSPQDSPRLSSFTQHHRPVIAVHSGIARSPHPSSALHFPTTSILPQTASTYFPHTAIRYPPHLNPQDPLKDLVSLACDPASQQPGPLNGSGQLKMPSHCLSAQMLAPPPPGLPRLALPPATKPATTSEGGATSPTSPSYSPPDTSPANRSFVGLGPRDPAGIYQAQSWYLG
UniProt P22392, whole entry, looked up: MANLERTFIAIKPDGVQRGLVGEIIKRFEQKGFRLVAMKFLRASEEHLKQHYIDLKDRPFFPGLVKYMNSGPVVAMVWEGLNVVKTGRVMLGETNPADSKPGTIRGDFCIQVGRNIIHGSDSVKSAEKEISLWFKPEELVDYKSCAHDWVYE
UniProt Q9BYG3: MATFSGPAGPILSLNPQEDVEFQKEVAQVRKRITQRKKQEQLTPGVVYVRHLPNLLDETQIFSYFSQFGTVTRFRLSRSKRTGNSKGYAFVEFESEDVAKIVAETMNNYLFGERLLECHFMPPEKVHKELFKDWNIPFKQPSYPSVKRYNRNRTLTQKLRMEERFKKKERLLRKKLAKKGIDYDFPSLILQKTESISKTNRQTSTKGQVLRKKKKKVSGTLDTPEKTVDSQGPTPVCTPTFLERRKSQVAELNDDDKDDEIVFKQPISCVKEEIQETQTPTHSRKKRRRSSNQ
UniProt P35240: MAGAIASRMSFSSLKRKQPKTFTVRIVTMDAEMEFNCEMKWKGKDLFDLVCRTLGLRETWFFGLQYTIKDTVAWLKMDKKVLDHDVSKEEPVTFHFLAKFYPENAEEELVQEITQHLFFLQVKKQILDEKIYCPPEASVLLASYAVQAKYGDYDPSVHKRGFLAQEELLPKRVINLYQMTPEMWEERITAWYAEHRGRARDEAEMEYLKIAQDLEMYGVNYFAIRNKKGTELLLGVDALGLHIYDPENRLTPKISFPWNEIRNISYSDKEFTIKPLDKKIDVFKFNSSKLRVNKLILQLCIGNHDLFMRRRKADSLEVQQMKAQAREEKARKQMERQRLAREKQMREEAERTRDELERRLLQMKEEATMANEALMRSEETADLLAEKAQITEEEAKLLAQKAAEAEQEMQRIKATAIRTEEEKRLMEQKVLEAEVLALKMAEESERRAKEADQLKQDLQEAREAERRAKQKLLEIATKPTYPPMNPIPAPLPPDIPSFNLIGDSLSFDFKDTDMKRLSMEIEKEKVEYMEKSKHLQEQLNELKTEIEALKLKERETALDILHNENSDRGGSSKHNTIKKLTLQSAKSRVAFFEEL
UniProt P23511, whole entry, looked up: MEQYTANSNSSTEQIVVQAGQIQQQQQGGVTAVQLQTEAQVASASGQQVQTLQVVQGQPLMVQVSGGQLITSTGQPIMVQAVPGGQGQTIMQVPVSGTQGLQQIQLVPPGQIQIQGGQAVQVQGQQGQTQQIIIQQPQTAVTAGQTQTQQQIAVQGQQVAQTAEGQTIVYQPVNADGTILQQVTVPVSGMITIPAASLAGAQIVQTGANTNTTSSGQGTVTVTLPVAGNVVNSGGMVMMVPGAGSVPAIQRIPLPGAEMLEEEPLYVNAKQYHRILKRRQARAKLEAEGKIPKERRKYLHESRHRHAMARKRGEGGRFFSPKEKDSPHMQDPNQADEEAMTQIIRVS
UniProt P06748, whole entry, looked up: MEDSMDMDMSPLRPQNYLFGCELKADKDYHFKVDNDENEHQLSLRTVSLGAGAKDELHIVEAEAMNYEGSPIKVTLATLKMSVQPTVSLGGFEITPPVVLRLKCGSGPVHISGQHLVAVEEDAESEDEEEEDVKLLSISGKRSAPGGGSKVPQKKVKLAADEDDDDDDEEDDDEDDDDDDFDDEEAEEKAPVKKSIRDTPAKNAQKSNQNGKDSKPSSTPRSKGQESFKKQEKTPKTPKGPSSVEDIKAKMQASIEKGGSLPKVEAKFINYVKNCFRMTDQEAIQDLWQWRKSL
UniProt Q9BPW8: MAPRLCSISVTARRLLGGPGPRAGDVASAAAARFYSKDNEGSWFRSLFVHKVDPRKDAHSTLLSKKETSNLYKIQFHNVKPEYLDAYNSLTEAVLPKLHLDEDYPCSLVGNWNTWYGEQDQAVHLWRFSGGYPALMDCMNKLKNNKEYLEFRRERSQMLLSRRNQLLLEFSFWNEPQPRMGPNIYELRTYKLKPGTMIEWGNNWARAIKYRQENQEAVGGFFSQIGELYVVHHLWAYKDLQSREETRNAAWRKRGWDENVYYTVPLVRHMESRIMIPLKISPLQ
UniProt P15531, whole entry, looked up: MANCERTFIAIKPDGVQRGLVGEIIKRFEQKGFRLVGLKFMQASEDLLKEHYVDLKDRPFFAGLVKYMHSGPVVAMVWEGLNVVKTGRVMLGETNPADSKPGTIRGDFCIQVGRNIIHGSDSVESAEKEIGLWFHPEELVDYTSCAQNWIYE
UniProt Q9UMY1: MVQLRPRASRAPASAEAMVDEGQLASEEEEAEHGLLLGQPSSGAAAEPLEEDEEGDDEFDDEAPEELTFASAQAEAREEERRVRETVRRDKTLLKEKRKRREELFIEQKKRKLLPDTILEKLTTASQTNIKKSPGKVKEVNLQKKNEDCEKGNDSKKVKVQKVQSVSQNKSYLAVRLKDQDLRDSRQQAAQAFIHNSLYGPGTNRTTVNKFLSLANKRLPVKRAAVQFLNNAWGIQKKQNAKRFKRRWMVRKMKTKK
UniProt Q7RTR2: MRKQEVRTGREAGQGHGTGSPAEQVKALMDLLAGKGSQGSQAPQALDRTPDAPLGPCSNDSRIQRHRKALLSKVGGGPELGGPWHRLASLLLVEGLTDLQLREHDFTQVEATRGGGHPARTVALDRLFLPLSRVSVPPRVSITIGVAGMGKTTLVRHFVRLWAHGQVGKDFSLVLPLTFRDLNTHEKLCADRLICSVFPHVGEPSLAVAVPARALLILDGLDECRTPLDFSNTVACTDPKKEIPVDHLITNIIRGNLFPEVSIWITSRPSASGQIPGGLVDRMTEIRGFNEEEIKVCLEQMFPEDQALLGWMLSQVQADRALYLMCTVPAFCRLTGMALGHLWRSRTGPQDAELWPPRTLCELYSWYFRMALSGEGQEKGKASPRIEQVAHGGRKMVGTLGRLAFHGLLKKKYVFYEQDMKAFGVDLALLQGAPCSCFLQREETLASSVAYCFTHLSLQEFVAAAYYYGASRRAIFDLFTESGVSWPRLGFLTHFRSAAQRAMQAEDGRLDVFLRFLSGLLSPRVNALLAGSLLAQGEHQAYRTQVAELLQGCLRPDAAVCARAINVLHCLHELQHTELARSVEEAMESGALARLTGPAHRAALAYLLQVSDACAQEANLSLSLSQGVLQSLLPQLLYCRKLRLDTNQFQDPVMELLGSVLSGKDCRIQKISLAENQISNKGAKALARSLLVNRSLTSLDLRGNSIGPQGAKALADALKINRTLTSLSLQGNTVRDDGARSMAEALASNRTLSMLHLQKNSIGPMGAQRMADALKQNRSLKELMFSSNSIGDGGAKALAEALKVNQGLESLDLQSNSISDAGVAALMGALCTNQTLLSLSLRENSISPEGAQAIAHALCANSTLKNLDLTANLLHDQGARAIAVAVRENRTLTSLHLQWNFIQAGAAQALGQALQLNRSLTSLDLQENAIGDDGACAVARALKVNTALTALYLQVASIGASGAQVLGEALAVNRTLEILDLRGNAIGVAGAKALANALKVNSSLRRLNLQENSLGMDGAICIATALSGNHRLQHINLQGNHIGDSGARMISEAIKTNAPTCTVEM
UniProt Q15155: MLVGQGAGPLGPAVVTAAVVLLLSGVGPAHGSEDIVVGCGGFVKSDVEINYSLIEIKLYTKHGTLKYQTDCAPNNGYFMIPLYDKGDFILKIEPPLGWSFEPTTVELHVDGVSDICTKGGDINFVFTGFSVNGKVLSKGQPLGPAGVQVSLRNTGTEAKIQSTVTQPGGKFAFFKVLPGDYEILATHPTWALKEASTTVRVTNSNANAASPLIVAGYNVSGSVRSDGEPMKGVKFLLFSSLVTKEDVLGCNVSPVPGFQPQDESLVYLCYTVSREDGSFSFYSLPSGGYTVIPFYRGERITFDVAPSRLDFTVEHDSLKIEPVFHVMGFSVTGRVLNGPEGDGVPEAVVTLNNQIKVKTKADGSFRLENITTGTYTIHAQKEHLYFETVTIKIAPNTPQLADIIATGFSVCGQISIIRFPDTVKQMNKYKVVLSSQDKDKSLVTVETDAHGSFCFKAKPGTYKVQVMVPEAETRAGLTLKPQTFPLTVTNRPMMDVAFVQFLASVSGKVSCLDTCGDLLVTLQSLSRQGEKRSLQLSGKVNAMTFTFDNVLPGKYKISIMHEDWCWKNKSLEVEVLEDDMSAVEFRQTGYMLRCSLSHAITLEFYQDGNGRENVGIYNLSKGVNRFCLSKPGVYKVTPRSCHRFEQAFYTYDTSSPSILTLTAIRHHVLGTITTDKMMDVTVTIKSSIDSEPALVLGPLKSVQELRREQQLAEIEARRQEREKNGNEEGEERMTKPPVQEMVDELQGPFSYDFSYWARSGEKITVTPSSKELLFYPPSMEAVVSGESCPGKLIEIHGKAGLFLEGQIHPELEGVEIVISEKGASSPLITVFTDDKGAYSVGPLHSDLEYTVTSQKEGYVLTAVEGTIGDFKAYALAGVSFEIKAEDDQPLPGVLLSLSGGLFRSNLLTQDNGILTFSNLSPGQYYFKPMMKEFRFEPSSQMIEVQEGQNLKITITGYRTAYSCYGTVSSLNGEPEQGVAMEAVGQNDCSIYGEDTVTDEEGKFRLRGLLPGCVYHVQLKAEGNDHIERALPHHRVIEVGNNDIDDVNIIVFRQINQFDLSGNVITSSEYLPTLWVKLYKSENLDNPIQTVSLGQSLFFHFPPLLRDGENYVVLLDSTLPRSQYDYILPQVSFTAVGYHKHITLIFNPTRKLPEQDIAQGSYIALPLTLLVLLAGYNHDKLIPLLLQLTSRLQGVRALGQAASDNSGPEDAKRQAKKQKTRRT
UniProt Q9Y697: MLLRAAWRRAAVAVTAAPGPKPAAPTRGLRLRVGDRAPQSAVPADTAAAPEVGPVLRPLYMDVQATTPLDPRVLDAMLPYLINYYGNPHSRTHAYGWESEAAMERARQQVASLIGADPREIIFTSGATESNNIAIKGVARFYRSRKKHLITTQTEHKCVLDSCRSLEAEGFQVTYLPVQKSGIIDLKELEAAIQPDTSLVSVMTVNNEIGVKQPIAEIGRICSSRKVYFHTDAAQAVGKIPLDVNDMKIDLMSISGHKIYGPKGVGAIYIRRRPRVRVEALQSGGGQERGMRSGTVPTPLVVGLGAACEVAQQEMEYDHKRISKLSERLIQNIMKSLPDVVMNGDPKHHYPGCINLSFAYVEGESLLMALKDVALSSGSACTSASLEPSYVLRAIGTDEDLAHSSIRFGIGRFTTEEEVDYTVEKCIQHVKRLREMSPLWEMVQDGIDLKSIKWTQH
UniProt Q13232: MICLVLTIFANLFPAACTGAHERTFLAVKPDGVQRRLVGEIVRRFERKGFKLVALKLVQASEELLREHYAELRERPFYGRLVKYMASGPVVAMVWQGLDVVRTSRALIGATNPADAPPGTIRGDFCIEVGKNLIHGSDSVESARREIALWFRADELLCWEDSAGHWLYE
UniProt O14524: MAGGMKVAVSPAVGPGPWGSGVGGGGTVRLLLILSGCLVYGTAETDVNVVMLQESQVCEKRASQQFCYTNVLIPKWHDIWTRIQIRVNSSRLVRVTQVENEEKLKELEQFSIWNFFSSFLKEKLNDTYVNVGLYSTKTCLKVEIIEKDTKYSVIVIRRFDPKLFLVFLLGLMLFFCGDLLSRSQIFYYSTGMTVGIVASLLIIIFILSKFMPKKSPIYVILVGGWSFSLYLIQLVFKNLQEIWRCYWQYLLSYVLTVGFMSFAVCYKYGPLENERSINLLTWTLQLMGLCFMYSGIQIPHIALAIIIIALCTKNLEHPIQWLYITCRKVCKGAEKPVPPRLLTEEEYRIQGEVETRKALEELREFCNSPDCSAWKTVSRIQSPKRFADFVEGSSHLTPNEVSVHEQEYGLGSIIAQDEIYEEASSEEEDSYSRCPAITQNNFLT

Assays:
Assay in all cases: log2 fold change, soluble protein after heating vs DMSO (PISA); higher = thermal stabilisation; K562 cells, 10 uM, 30 min; active = over 0.2 and 3.5 SD of the protein, either way, in both replicates (recomputed)
[1] = compound: CC[C@@H]1C(=O)N(C)c2cnc(Nc3ccc(C(=O)NC4CCN(C)CC4)cc3OC)nc2N1C1CCCC1
In short: (§1)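 K562 cells at 2×10^6 cells/mL were treated for 30 min with 10 μM compound, and aliquots were heated for 3 min over 48°C-58°C before pooling. Extraction used PBS with 0.5% NP-40 at 4°C, and soluble protein was the supernatant after 21,000xg for 90 min, measured by TMTpro 16plex LC-MS/MS with channel sums equalised. Thermal stability values, relative to control samples and from duplicates, are log2 fold changes.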

volasertib = compound: CC[C@@H]1C(=O)N(C)c2cnc(Nc3ccc(C(=O)N[C@H]4CC[C@H](N5CCN(CC6CC6)CC5)CC4)cc3OC)nc2N1C(C)C [volasertib]
In short: as §1

[2] = compound: CC[C@H](C)N1C=C(C2=C(C=C(C=C21)C3=CN=C(C=C3)N4CCNCC4)C(=O)NCC5=C(C=C(NC5=O)C)C)C
In short: as §1

epoxomicin = compound: CC[C@H](C)[C@@H](C(=O)N[C@@H]([C@@H](C)O)C(=O)N[C@@H](CC(C)C)C(=O)[C@]1(CO1)C)NC(=O)[C@H]([C@@H](C)CC)N(C)C(=O)C [epoxomicin]
In short: as §1

[3] = compound: CCn1c(C(=O)N(C2CC2)C2CC2)cc2c3c(ncn3C)c(Nc3cc(C)n(C)n3)nc21
In short: as §1

[4] = compound: CCn1cc(-c2ccnc3[nH]c(-c4cccc(CN(C)C)c4)cc23)c(-c2ccc(NC(=O)N(C)C)cc2)n1
In short: as §1

[5] = compound: CN(C)CC(=O)Nc1ccc2[nH]c(=O)c3ccccc3c2c1
In short: as §1

rosiglitazone = compound: CN(CCOC1=CC=C(C=C1)C[C@H]2C(=O)NC(=O)S2)C3=CC=CC=N3 (racemic) [rosiglitazone]
In short: as §1

[6] = compound: CN1C2=C(C3=C1C(=O)N(N=C3)CC4=CC(=CC=C4)N)SC(=C2)S(=O)C
In short: as §1

[7] = compound: CN1CCC(CNc2ccc3ncc(-c4cccc(OC(F)(F)F)c4)n3n2)CC1
In short: as §1

saracatinib = compound: CN1CCN(CCOc2cc(OC3CCOCC3)c3c(Nc4c(Cl)ccc5c4OCO5)ncnc3c2)CC1 [saracatinib]
In short: as §1

sotrastaurin = compound: CN1CCN(c2nc(C3=C(c4c[nH]c5ccccc45)C(=O)NC3=O)c3ccccc3n2)CC1 [sotrastaurin]
In short: as §1

alvocidib = compound: CN1CC[C@H](c2c(O)cc(O)c3c(=O)cc(-c4ccccc4Cl)oc23)[C@H](O)C1 [alvocidib]
In short: as §1

Tubastatin A = compound: CN1CCc2c(c3ccccc3n2Cc2ccc(C(=O)NO)cc2)C1 [Tubastatin A]
In short: as §1

[8] = compound: CNC(=O)C1=CC=CC=C1NC2=NC(=NC=C2Cl)NC3=C(C=C(C=C3)N4CCOCC4)OC
In short: as §1

defactinib = compound: CNC(=O)c1ccc(Nc2ncc(C(F)(F)F)c(NCc3nccnc3N(C)S(C)(=O)=O)n2)cc1 [defactinib]
In short: as §1

rucaparib = compound: CNCc1ccc(-c2[nH]c3cc(F)cc4c3c2CCNC4=O)cc1 [rucaparib]
In short: as §1

[9] = compound: CNc1nc(-c2ccc3c(N)n[nH]c3c2)cc(N2C[C@@H](C(=O)NC3CCCCC3)CC[C@H]2C)n1
In short: as §1

encorafenib = compound: COC(=O)N[C@@H](C)CNc1nccc(-c2cn(C(C)C)nc2-c2cc(Cl)cc(NS(C)(=O)=O)c2F)n1 [encorafenib]
In short: as §1

[10] = compound: COC(=O)[C@H](CCSC)NC(=O)C1=C(C=C(C=C1)NC[C@H](CS)N)C2=CC=CC=C2
In short: as §1

| Target | log2 fold change [1] | log2 fold change (volasertib) | log2 fold change [2] | log2 fold change (epoxomicin) | log2 fold change [3] | log2 fold change [4] | log2 fold change [5] | log2 fold change (rosiglitazone) | log2 fold change [6] | log2 fold change [7] | log2 fold change (saracatinib) | log2 fold change (sotrastaurin) | log2 fold change (alvocidib) | log2 fold change (Tubastatin A) | log2 fold change [8] | log2 fold change (defactinib) | log2 fold change (rucaparib) | log2 fold change [9] | log2 fold change (encorafenib) | log2 fold change [10] |
| --- | --- | --- | --- | --- | --- | --- | --- | --- | --- | --- | --- | --- | --- | --- | --- | --- | --- | --- | --- | --- |
| NFIC (UniProt P08651) | inactive: 0.16 | inactive: 0.173 | inactive: -0.037 | inactive: 0.111 | inactive: 0.027 | inactive: 0.005 | inactive: -0.115 | inactive: -0.015 | inactive: -0.025 | inactive: 0.04 | inactive: 0.094 | inactive: 0.081 | inactive: -0.024 | inactive: -0.054 | inactive: 0.018 | inactive: 0.014 | inactive: 0.068 | inactive: -0.077 | inactive: 0.022 | inactive: 0.01 |
| NME2 isoform 2 (UniProt P22392) | inactive: 0.047 | inactive: 0.087 | inactive: -0.027 | inactive: 0.006 | inactive: 0.025 | inactive: 0.011 | inactive: -0.023 | inactive: 0.011 | inactive: -0.057 | inactive: -0.032 | inactive: 0.003 | inactive: 0.044 | inactive: -0.009 | inactive: -0.009 | inactive: -0.05 | inactive: 0.001 | inactive: -0.019 | inactive: -0.043 | inactive: -0.017 | inactive: 0.027 |
| NOC2L (UniProt Q9Y3T9) | inactive: 0.028 | inactive: -0.309 | inactive: 0.11 | inactive: 0.151 | inactive: -0.084 | inactive: 0.082 | inactive: 0.06 | inactive: 0.006 | inactive: 0.032 | inactive: 0.04 | inactive: -0.089 | inactive: -0.065 | inactive: -0.122 | inactive: 0.109 | inactive: 0.055 | inactive: -0.113 | inactive: 0.002 | inactive: -0.039 | inactive: 0.086 | inactive: 0.022 |
| NIFK (UniProt Q9BYG3) | inactive: 0.077 | inactive: 0.15 | inactive: -0.009 | inactive: -0.242 | inactive: 0.01 | inactive: 0.181 | inactive: -0.112 | inactive: -0.136 | inactive: 0.222 | inactive: 0.226 | inactive: -0.089 | inactive: 0.057 | inactive: 0.276 | inactive: 0.102 | inactive: 0.134 | inactive: 0.166 | inactive: 0.245 | inactive: 0.091 | inactive: 0.114 | inactive: -0.289 |
| NF2 (UniProt P35240) | inactive: -0.003 | inactive: -0.109 | inactive: 0.035 | inactive: -0.015 | inactive: -0.027 | inactive: -0.048 | inactive: -0.018 | inactive: 0.014 | inactive: -0.03 | inactive: -0.008 | inactive: -0.04 | inactive: 0.025 | inactive: -0.077 | inactive: 0.024 | inactive: -0.01 | inactive: -0.13 | inactive: 0.046 | inactive: 0.019 | inactive: 0.013 | inactive: 0.012 |
| NFYA (UniProt P23511) | inactive: 0.009 | inactive: 0.055 | inactive: 0.023 | inactive: 0.16 | inactive: 0.049 | inactive: -0.027 | inactive: -0.019 | inactive: -0.055 | inactive: -0.018 | inactive: -0.02 | inactive: -0.096 | inactive: 0.152 | inactive: -0.046 | inactive: -0.006 | inactive: 0.007 | inactive: -0.025 | inactive: 0.131 | inactive: 0.029 | inactive: -0.024 | inactive: 0.043 |
| NPM1 (UniProt P06748) | inactive: 0.126 | inactive: 0.279 | inactive: 0.015 | inactive: -0.304 | inactive: 0.057 | inactive: 0.188 | inactive: -0.057 | inactive: -0.155 | inactive: 0.251 | inactive: 0.351 | inactive: -0.076 | inactive: -0.035 | inactive: 0.179 | inactive: 0.092 | inactive: 0.033 | inactive: 0.228 | inactive: 0.402 | inactive: 0.071 | inactive: 0.143 | inactive: -0.056 |
| NIPSNAP1 (UniProt Q9BPW8) | inactive: -0.027 | inactive: -0.025 | inactive: -0.009 | inactive: -0.024 | inactive: -0.031 | inactive: -0.067 | inactive: 0.083 | inactive: -0.019 | inactive: -0.094 | inactive: -0.054 | inactive: -0.055 | inactive: 0 | inactive: -0.076 | inactive: -0.017 | inactive: 0.063 | inactive: -0.054 | inactive: 0.008 | inactive: -0.014 | inactive: -0.084 | inactive: -0.014 |
| NME1 isoform 2 (UniProt P15531) | inactive: 0.061 | inactive: 0.046 | inactive: 0.03 | inactive: -0.01 |  | inactive: -0.134 | inactive: -0.028 |  | inactive: -0.184 | inactive: -0.039 | inactive: -0.156 | inactive: 0.049 |  | inactive: -0.024 | inactive: -0.087 | inactive: -0.01 | inactive: 0.035 | inactive: 0.069 | inactive: -0.032 | inactive: 0.041 |
| NOL7 (UniProt Q9UMY1) | inactive: 0.226 | inactive: 0.417 | inactive: -0.086 | inactive: -0.338 |  | inactive: 0.232 | inactive: -0.123 |  | inactive: 0.316 | inactive: 0.237 | inactive: -0.057 | inactive: 0.017 |  | inactive: 0.161 | inactive: 0.032 | inactive: 0.303 | inactive: 0.312 | inactive: 0.098 | inactive: 0.1 | inactive: -0.042 |
| NLRC3 isoform 2 (UniProt Q7RTR2) | inactive: 0.133 | inactive: 0.064 | inactive: -0.222 | inactive: -0.176 | inactive: -0.025 |  | inactive: -0.161 | inactive: 0.13 | inactive: -0.204 |  | inactive: -0.002 | inactive: 0.148 | inactive: 0.238 |  | inactive: -0.104 | inactive: 0.107 | inactive: -0.129 | inactive: -0.137 | inactive: 0.066 | inactive: 0.167 |
| NOMO1 (UniProt Q15155) | inactive: -0.054 | inactive: -0.166 | inactive: 0.002 | inactive: 0.053 | inactive: -0.099 | inactive: 0.024 | inactive: -0.088 | inactive: -0.006 | inactive: 0.182 | inactive: 0.001 | inactive: -0.067 | inactive: 0.009 | inactive: 0.086 | inactive: 0.016 | inactive: -0.168 | inactive: -0.124 | inactive: 0.035 | inactive: -0.084 | inactive: -0.083 | inactive: 0.019 |
| NFS1 (UniProt Q9Y697) | inactive: -0.004 | inactive: -0.067 | inactive: 0.023 | inactive: 0 | inactive: -0.022 | inactive: -0.045 | inactive: 0.009 | inactive: 0.022 | inactive: -0.113 | inactive: 0.035 | inactive: -0.004 | inactive: 0 | inactive: -0.059 | inactive: -0.002 | inactive: -0.008 | inactive: -0.019 | inactive: -0.032 | inactive: 0.008 | inactive: -0.008 | inactive: -0.011 |
| NME3 (UniProt Q13232) | inactive: 0.043 | inactive: 0.071 | inactive: -0.063 | inactive: 0.043 | inactive: 0.012 | inactive: -0.019 | inactive: -0.004 | inactive: 0.007 | inactive: -0.04 | inactive: 0.048 | inactive: 0.036 | inactive: 0.05 | inactive: 0.019 | inactive: 0 | inactive: -0.022 | inactive: 0 | inactive: -0.024 | inactive: -0.072 | inactive: -0.052 | inactive: -0.01 |
| NIF3L1 (UniProt Q9GZT8) | inactive: 0.037 | inactive: 0.083 | inactive: -0.048 | inactive: -0.031 | inactive: 0.024 | inactive: -0.016 | inactive: -0.01 | inactive: -0.062 | inactive: -0.083 | inactive: -0.012 | inactive: 0.027 | inactive: 0.117 | inactive: 0.005 | inactive: -0.025 | inactive: -0.037 | inactive: -0.009 | inactive: 0.052 | inactive: -0.049 | inactive: -0.074 | inactive: 0.008 |
| NEMP1 (UniProt O14524) | inactive: 0.007 | inactive: -0.128 | inactive: -0.023 | inactive: 0.015 |  | inactive: 0.018 | inactive: -0.003 |  | inactive: 0.01 | inactive: -0.106 | inactive: -0.001 | inactive: -0.012 |  | inactive: -0.002 | inactive: -0.111 | inactive: 0.021 | inactive: 0.026 | inactive: -0.045 | inactive: -0.039 | inactive: 0.053 |
| NISCH (UniProt Q9Y2I1) | inactive: -0.349 | active: -0.487 | inactive: 0.025 | inactive: 0.05 |  | inactive: -0.121 | inactive: 0.02 |  | inactive: 0.086 | active: -0.518 | inactive: -0.037 | inactive: -0.066 |  | inactive: -0.022 | inactive: -0.141 | inactive: -0.128 | inactive: -0.041 | inactive: -0.072 | inactive: 0.093 | inactive: -0.12 |

Quoted from above for reference:

| Target | log2 fold change [1] | log2 fold change (volasertib) | log2 fold change [2] | log2 fold change (epoxomicin) | log2 fold change [3] | log2 fold change [4] | log2 fold change [5] | log2 fold change (rosiglitazone) | log2 fold change [6] | log2 fold change [7] | log2 fold change (saracatinib) | log2 fold change (sotrastaurin) | log2 fold change (alvocidib) | log2 fold change (Tubastatin A) | log2 fold change [8] | log2 fold change (defactinib) | log2 fold change (rucaparib) | log2 fold change [9] | log2 fold change (encorafenib) | log2 fold change [10] |
| --- | --- | --- | --- | --- | --- | --- | --- | --- | --- | --- | --- | --- | --- | --- | --- | --- | --- | --- | --- | --- |
| NFS1 (UniProt Q9Y697) | inactive: -0.004 | inactive: -0.067 | inactive: 0.023 | inactive: 0 | inactive: -0.022 | inactive: -0.045 | inactive: 0.009 | inactive: 0.022 | inactive: -0.113 | inactive: 0.035 | inactive: -0.004 | inactive: 0 | inactive: -0.059 | inactive: -0.002 | inactive: -0.008 | inactive: -0.019 | inactive: -0.032 | inactive: 0.008 | inactive: -0.008 | inactive: -0.011 |
| NME3 (UniProt Q13232) | inactive: 0.043 | inactive: 0.071 | inactive: -0.063 | inactive: 0.043 | inactive: 0.012 | inactive: -0.019 | inactive: -0.004 | inactive: 0.007 | inactive: -0.04 | inactive: 0.048 | inactive: 0.036 | inactive: 0.05 | inactive: 0.019 | inactive: 0 | inactive: -0.022 | inactive: 0 | inactive: -0.024 | inactive: -0.072 | inactive: -0.052 | inactive: -0.01 |
